Laboratory results: PMC5663475, “SAV1 promotes Hippo kinase activation through antagonizing the PP2A phosphatase STRIPAK” (eLife, 2017)
No constants are given. Whether binding was seen depends on the method and setting. In cells and extracts the contact can be indirect. A result given as binding can be weak or reduced; the word gives no strength.

Sequences of proteins named here, by UniProt entry; tags and fusion partners are left off. A change or cut given only in a name is not applied to a line headed by its entry.
UniProt Q13188: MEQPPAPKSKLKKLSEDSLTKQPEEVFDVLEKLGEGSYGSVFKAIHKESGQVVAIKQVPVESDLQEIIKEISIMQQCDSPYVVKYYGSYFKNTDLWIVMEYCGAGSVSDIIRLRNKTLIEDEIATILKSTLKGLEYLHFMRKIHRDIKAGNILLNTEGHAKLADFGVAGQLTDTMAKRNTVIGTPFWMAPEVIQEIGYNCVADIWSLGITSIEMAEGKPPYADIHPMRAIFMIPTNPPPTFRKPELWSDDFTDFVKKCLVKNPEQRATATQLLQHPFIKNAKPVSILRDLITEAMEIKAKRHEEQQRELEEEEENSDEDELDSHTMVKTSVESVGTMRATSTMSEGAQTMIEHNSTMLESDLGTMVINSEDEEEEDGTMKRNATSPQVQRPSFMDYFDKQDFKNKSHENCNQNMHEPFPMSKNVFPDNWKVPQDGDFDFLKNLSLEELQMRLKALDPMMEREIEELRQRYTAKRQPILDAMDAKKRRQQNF

Key:
Experiment in all cases: co-IP; anti-FLAG IP from lysates of 293FT cells transfected with FLAG-MST2 plasmids; endogenous SLMAP detected by anti-SLMAP blot
[1] = target: FLAG-MST2 7TA mutant with T378 restored (human) (UniProt Q13188)
[2] = target: FLAG-MST2 7TA mutant with T336 restored (human) (UniProt Q13188)
[3] = target: FLAG-MST2 7TA mutant with T325 restored (human) (UniProt Q13188)

Measured: binding

B1: endogenous SLMAP (protein, UniProt Q14BN4 1-828)
chain: MPSALAIFTCRPNSHPFQERHVYLDEPIKIGRSVARCRPAQNNATFDCKVLSRNHALVWFDHKTGKFYLQDTKSSNGTFINSQRLSRGSEESPPCEILSGDIIQFGVDVTENTRKVTHGCIVSTIKLFLPDGMEARLRSDVIHAPLPSPVDKVAANTPSMYSQELFQLSQYLQEALHREQMLEQKLATLQRLLAITQEASDTSWQALIDEDRLLSRLEVMGNQLQACSKNQTEDSLRKELIALQEDKHNYETTAKESLRRVLQEKIEVVRKLSEVERSLSNTEDECTHLKEMNERTQEELRELANKYNGAVNEIKDLSDKLKVAEGKQEEIQQKGQAEKKELQHKIDEMEEKEQELQAKIEALQADNDFTNERLTALQVRLEHLQEKTLKECSSLEHLLSKSGGDCTFIHQFIECQKKLIVEGHLTKAVEETKLSKENQTRAKESDFSDTLSPSKEKSSDDTTDAQMDEQDLNEPLAKVSLLKDDLQGAQSEIEAKQEIQHLRKELIEAQELARTSKQKCFELQALLEEERKAYRNQVEESTKQIQVLQAQLQRLHIDTENLREEKDSEITSTRDELLSARDEILLLHQAAAKVASERDTDIASLQEELKKVRAELERWRKAASEYEKEITSLQNSFQLRCQQCEDQQREEATRLQGELEKLRKEWNALETECHSLKRENVLLSSELQRQEKELHNSQKQSLELTSDLSILQMSRKELENQVGSLKEQHLRDSADLKTLLSKAENQAKDVQKEYEKTQTVLSELKLKFEMTEQEKQSITDELKQCKNNLKLLREKGNNKPWPWMPMLAALVAVTAIVLYVPGLARASP
binds: all assays above
